Results deposited as PubChem BioAssay AID1159578 (Peter MacCallum Cancer Centre, 2015)
Shown is a random part of about 18,000 reagents tested. Over the whole deposit, about 1,030 (5.7%) got an active call. 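Inactive calls also include pools with fewer than 3300 nuclei, whose migration was not assessed.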 Raw values vary from plate to plate and are shown uncorrected. The numbers tell different reagents against one gene apart. Further read-outs or replicates are left out here.

- Test: 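Genome-wide hunt for genes controlling movement of lymphatic endothelial cells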 (primary screen)
- Cell system: human lymphatic endothelial cells
- Reagents: siRNA pool against human genes, 40 nM
- Duration: 48 h after transfection
- Measurement: 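High-content imaging of dye-stained cells in a scratch assay measures filled wound area and nuclei per well; duplicate means given as ratio to mock and robust z-score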
- Reading the numbers: migration robust z-score: higher = faster migration into the scratch; nuclei per well: higher = more cells in the well
- Rule for the call: 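Pools averaging fewer than 3300 nuclei are never called; remaining pools count as changed when migration robust z lies outside -2 to 2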
- Meaning of the calls: active = migration changed; inactive = no migration change, or too few cells

With ZNF562, how do the results read?
migration robust z-score: 0.9; migration class with cell-count check: migration z between -2 and 2; enough cells; nuclei per well, duplicate mean: 5696; call: inactive

With PDE6D, what was measured?
migration robust z-score: 0.39; migration class with cell-count check: migration z between -2 and 2; enough cells; nuclei per well, duplicate mean: 6934; call: inactive

What did the screen give for OR2C3?
migration robust z-score: -2.25; migration class with cell-count check: migration z below -2; enough cells; nuclei per well, duplicate mean: 3340; call: active

How did the screen score TULP1?
migration robust z-score: 0.66; migration class with cell-count check: migration z between -2 and 2; enough cells; nuclei per well, duplicate mean: 5570; call: inactive

With DSTYK, how do the results read?
migration robust z-score: -2.05; migration class with cell-count check: migration z below -2; enough cells; nuclei per well, duplicate mean: 5460; call: active

Records above called active:
OR2C3 → migration robust z-score: -2.25; migration class with cell-count check: migration z below -2; enough cells; nuclei per well, duplicate mean: 3340; call: active
DSTYK → migration robust z-score: -2.05; migration class with cell-count check: migration z below -2; enough cells; nuclei per well, duplicate mean: 5460; call: active

Further results follow.
How did the screen score C22orf15?
migration robust z-score: -1.01; migration class with cell-count check: migration z between -2 and 2; enough cells; nuclei per well, duplicate mean: 4752; call: inactive

How did the screen score FAM89B?
migration robust z-score: 0.56; migration class with cell-count check: migration z between -2 and 2; enough cells; nuclei per well, duplicate mean: 7220; call: inactive

For ALDH1L1, what does the deposit list?
migration robust z-score: 1.33; migration class with cell-count check: migration z between -2 and 2; enough cells; nuclei per well, duplicate mean: 5655; call: inactive

For XRN1, what does the deposit list?
migration robust z-score: 0.83; migration class with cell-count check: migration z between -2 and 2; enough cells; nuclei per well, duplicate mean: 6210; call: inactive

For MRC1 #1, what does the deposit list?
migration robust z-score: -0.55; migration class with cell-count check: migration z between -2 and 2; enough cells; nuclei per well, duplicate mean: 6240; call: inactive

How did the screen score MRC1 #2?
migration robust z-score: 1.08; migration class with cell-count check: migration z between -2 and 2; enough cells; nuclei per well, duplicate mean: 5927; call: inactive

How did the screen score TOPORS?
migration robust z-score: 1.22; migration class with cell-count check: migration z between -2 and 2; enough cells; nuclei per well, duplicate mean: 5391; call: inactive

With AGMAT, what was measured?
migration robust z-score: -0.16; migration class with cell-count check: migration z between -2 and 2; enough cells; nuclei per well, duplicate mean: 5542; call: inactive

With GLB1L3, how do the results read?
migration robust z-score: -1.81; migration class with cell-count check: migration z between -2 and 2; enough cells; nuclei per well, duplicate mean: 5892; call: inactive
